Measured values reported in patent US20080020984A1, “Crystal Structure of a Receptor-Ligand Complex and Methods of Use” (priority 2006, published 2008).
Part of at least one peptide drawing is inferred or uncertain, most often the ends. Where no end group is shown, it is not given here.

Molecular target: T1, human EphB4 ephrin-binding domain, EphB4 (wt), EphB4 (17-196) (Homo sapiens, UniProt P54760)
T1 sequence (P54760 17-196): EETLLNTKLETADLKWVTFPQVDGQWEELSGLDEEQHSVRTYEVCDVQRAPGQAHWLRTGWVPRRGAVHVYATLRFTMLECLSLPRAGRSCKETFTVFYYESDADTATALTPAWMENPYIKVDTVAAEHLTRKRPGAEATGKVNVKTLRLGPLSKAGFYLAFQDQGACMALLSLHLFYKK
Assay: Isothermal titration calorimetry (ITC), wild-type EphB4
Conditions: Table 5, receptor EphB4 (wt)

Q: Which results are given for LFSPNGPAARAW [LFSP-RAW(I to A)]?
A: TΔS: 3.0 ± 0.4, kcal mol−1; ΔG: -5.7 ± 0.1 kcal/mol; ΔH: −2.7 ± 0.3 koal mol−1
